According to article PMC7819943, “Rice protein-binding microarrays: a tool to detect cis-acting elements near promoter regions in rice”:
This is one part of the list.

Target: T1, OsSMF1 (Oryza sativa, UniProt Q6ZLB0 1-436)
T1 sequence: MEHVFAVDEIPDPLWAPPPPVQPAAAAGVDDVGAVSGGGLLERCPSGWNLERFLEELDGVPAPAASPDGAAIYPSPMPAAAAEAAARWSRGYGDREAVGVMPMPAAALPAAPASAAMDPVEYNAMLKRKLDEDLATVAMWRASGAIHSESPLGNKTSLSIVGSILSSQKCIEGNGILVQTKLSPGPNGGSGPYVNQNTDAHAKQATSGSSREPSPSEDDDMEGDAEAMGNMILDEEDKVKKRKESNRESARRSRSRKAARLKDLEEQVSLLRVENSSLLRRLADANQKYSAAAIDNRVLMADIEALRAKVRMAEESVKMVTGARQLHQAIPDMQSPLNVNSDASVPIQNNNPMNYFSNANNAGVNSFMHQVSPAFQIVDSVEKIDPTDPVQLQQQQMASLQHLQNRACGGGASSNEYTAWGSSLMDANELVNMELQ
Test: protein-binding microarray (RPBM); PBS, 2% BSA, 51.3 ng/ul salmon testes DNA, 50 uM zinc acetate, 200 nM TF, 25 C, 1 h; high values mean tight binding
Conditions: protein: recombinant; tags: N-terminal polyhistidine and DsRed monomer fusion (pET32a); chain copies: 2; label: CyDye5-dUTP incorporated in the synthesized complementary strand; 3' TTTTT single-stranded linker to array surface; dsDNA, one strand shown
Outline: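 An Axon 4000B scanner gave the binding signal as per-feature fluorescence intensity in arbitrary units. This followed washing of a custom Agilent array that had been incubated for 1 h at 25 °C with 200 nM protein in PBS, 2% BSA, salmon testes DNA and 50 µM zinc acetate. The proteins were transcription factors fused at the N-terminus to polyhistidine and DsRed, expressed in E. coli BL21-CodonPlus and purified on Ni–NTA.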

Sequence | binding signal
CTCTGCACAATTGCACCAACCCCAAAGCTTGGCTAAGCTCCGGAGTCACCTAGTGCAG | 51000 fluorescence intensity (a.u.)
CCGCCGCCCTCGCCGCTGCCACGCCGCCGCCGCCGCCCTTCGGAGTCACCTAGTGCAG | 4700 fluorescence intensity (a.u.)
ATATGGACAAAATCAGTATTTGCAACCTTGATTGGACTGGCGGAGTCACCTAGTGCAG | 3450 fluorescence intensity (a.u.)
ATGAACATGACTGGGACCATCCCTGATGATCTATCGTCACCGGAGTCACCTAGTGCAG | 5160 fluorescence intensity (a.u.)
GGAGGAGGATCATATCAGGCGACGATCGATGGCGCTTTCGCGGAGTCACCTAGTGCAG | 3170 fluorescence intensity (a.u.)
ATGGAGTATATGACTACTGCATGCGTCACCAAGATAAGCACGGAGTCACCTAGTGCAG | 5240 fluorescence intensity (a.u.)
CTTGATTGCTGATTAGTCAGCTGCCTGCGCTGCGTTCTCCCGGAGTCACCTAGTGCAG | 7180 fluorescence intensity (a.u.)
CATTCACTTTTCCATTTCTGATGCCATGGGTCTTATTCCACGGAGTCACCTAGTGCAG | 3200 fluorescence intensity (a.u.)
AATATTGAGGCCAGGAGATTTACCAGTTACCACGGATTTGCGGAGTCACCTAGTGCAG | 4000 fluorescence intensity (a.u.)
ACTCGGTTGGACAACGTCGTCATTCTCTCGCCATTGGCTGCGGAGTCACCTAGTGCAG | 3540 fluorescence intensity (a.u.)
AATGTAGGCACCATACCATGACTGTTTTCACACATTGTACCGGAGTCACCTAGTGCAG | 3580 fluorescence intensity (a.u.)
ATCCTTGTCTTTTGTCTGTTTTGATATCGTACTACGTAGACGGAGTCACCTAGTGCAG | 3250 fluorescence intensity (a.u.)
CGATTCCCAACCCTAACCGTCGTCACTGCCACCGCCAGCCCGGAGTCACCTAGTGCAG | 4150 fluorescence intensity (a.u.)
TACTCAAGTGACAAGTGTCAAAGTGCGTGTGGTTTTCTACCGGAGTCACCTAGTGCAG | 3970 fluorescence intensity (a.u.)
TACAGACCAAATCACCCGAATCGATCTCTGCCGTCCATCTCGGAGTCACCTAGTGCAG | 3240 fluorescence intensity (a.u.)
AGCCTATTTATAACACGCGGCGCGGCCGTGTGAGCGCCGCCGGAGTCACCTAGTGCAG | 3580 fluorescence intensity (a.u.)
TAATTCCTTCCACTAATTACCAAGCGGCAATCGGCGGCCACGGAGTCACCTAGTGCAG | 3320 fluorescence intensity (a.u.)
GAGGGCCTCCCCGACCTCGCGCTGCTCCACCTCAACTCCACGGAGTCACCTAGTGCAG | 3420 fluorescence intensity (a.u.)
TCTCTTACAAATAAACCTGAATACACAAAACTTAGGTGTGCGGAGTCACCTAGTGCAG | 33600 fluorescence intensity (a.u.)
TCGGTCTTCGTCCCACGTGTCGTCGACGTGTCGCTTATCTCGGAGTCACCTAGTGCAG | 24300 fluorescence intensity (a.u.)
TCTCCGACATTGACACAGGCATCACCGGCAACGTCCGACTCGGAGTCACCTAGTGCAG | 3430 fluorescence intensity (a.u.)

Sequence | binding signal
AGCTTTACGAAAGGCCACACCTCGGATTATAAATACTACCCGGAGTCACCTAGTGCAG | 3920 fluorescence intensity (a.u.)
GATCCCAACGCCGACCCTACACGTCATCCCTACGCCTCGTCGGAGTCACCTAGTGCAG | 21700 fluorescence intensity (a.u.)
GGGTCCCACGCTGACTCAGCCGCCACGTCGAATAAAACCGCGGAGTCACCTAGTGCAG | 23300 fluorescence intensity (a.u.)
AGCATGTCCGGCACGCCGATGGACGTGTGCGTGGCGCTCGCGGAGTCACCTAGTGCAG | 4870 fluorescence intensity (a.u.)
GTAGGTATCGTCGTGTCAAAATTTTGATTCCTCCATGACACGGAGTCACCTAGTGCAG | 3230 fluorescence intensity (a.u.)
AAAGTCTTGAACCGTTTGAGTGATGTCAGATTTAATCCAACGGAGTCACCTAGTGCAG | 5870 fluorescence intensity (a.u.)
AGTTTTGCCACGCATATTATCCACTTTCCCATGAGTGCTTCGGAGTCACCTAGTGCAG | 3630 fluorescence intensity (a.u.)
CGTACCCGGAGACGAAGTCCACGTCGGAGAACAGGAGCTGCGGAGTCACCTAGTGCAG | 7820 fluorescence intensity (a.u.)
ACAGACACGTCGGCCCCACCAACTCCAGGGCCCACATGTCCGGAGTCACCTAGTGCAG | 5230 fluorescence intensity (a.u.)
TATCCATTGCTCCCAAACACTCAGTAAGTACTCATCCAGTCGGAGTCACCTAGTGCAG | 3800 fluorescence intensity (a.u.)
GAGAAACTCATGGTTCATCGTCCCTCCAAACACAAATTCTCGGAGTCACCTAGTGCAG | 7920 fluorescence intensity (a.u.)
ATAAGTGTTCTATCTCTCCTTTACGTTCCTTGATTCAATCCGGAGTCACCTAGTGCAG | 3160 fluorescence intensity (a.u.)
AACTATAAAATTAGAAAACACGGGGATGATAAGGTTTGGTCGGAGTCACCTAGTGCAG | 23600 fluorescence intensity (a.u.)
GTTGGCCATGGCCTTACATGTCACATAAATAATCATTAACCGGAGTCACCTAGTGCAG | 3200 fluorescence intensity (a.u.)
TAATAGTGCTCCTACGGTGGGGAAACCTCCTGTTGTTACACGGAGTCACCTAGTGCAG | 3230 fluorescence intensity (a.u.)
GCCACCGCCGCCGCGCGGTCGACGCAAGGGTAAGGGTAAGCGGAGTCACCTAGTGCAG | 27600 fluorescence intensity (a.u.)
TCAAATTGTCACATAAGCGTCATGTCAATGCCACGTCAGACGGAGTCACCTAGTGCAG | 27200 fluorescence intensity (a.u.)
GAAGCAACCAAAATCCCTTGTCCTGTCATATTGTCGTACTCGGAGTCACCTAGTGCAG | 3210 fluorescence intensity (a.u.)
ACGACGAGAACTCGGTCCGCGTCACCAACCTGTCGGAGGACGGAGTCACCTAGTGCAG | 11500 fluorescence intensity (a.u.)
TGCCGGAGGAAGGCGATGGCGCTGGCGGCGTCGACGGGCGCGGAGTCACCTAGTGCAG | 35900 fluorescence intensity (a.u.)
CTGGTTTTGTGCAGGTGACGCAGCGTCGCATTGAGAACCCCGGAGTCACCTAGTGCAG | 7240 fluorescence intensity (a.u.)

A different layout for some results above.
Sequence,binding signal
ACAGACACGTCGGCCCCACCAACTCCAGGGCCCACATGTCCGGAGTCACCTAGTGCAG,5230 fluorescence intensity (a.u.)
TATCCATTGCTCCCAAACACTCAGTAAGTACTCATCCAGTCGGAGTCACCTAGTGCAG,3800 fluorescence intensity (a.u.)
